The target of assay [1] is T1, GRAIN YIELD, PLANT HEIGHT AND HEADING DATE 8 (Ghd8) (rice (Oryza sativa)) (UniProt Q0J7P4).
T1 sequence: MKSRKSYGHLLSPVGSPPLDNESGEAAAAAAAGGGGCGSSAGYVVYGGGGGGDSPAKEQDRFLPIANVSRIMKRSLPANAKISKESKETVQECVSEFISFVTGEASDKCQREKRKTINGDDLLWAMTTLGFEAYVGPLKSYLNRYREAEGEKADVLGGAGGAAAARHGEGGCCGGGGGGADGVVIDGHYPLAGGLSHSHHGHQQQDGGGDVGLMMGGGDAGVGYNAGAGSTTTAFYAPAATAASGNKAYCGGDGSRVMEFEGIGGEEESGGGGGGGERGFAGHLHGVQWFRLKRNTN
The assay is described as follows: yeast three-hybrid; BD-Ghd8 (pGBKT7), NF-YC subunit or nothing from pTFT1, AD fusion (pGADT7); growth on YSD lacking Leu, Trp, Ade and His with increasing 3AT; 6 days at 30°C.

The target of assay [2] is T1, GRAIN YIELD, PLANT HEIGHT AND HEADING DATE 8 (Ghd8) (rice (Oryza sativa)). The assay is described as follows: two-hybrid; GAL4 AD (pGADT7) and BD (pGBKT7) fusions in yeast (AH109, Y187), diploids after mating; growth on YSD lacking Leu, Trp and His with increasing 3AT; 6 days at 30°C.
For assay [3], the target named is T2, GRAIN YIELD, PLANT HEIGHT AND HEADING DATE 8 (Ghd8) (rice (Oryza sativa)), Q0J7P4.
T2 chain: T1 sequence
The assay is described as follows: yeast three-hybrid; BD-Ghd8 (pGBKT7), NF-YC subunit or nothing from pTFT1, AD fusion (pGADT7); growth on YSD lacking Leu, Trp, Ade and His with increasing 3AT; 6 days at 30°C. The following applies: remark: other sources report otherwise.

Assay [4] addresses T2, GRAIN YIELD, PLANT HEIGHT AND HEADING …. The assay is described as follows: two-hybrid; GAL4 AD (pGADT7) and BD (pGBKT7) fusions in yeast (AH109, Y187), diploids after mating; growth on YSD lacking Leu, Trp and His with increasing 3AT; 6 days at 30°C. The following applies: remark: other sources report otherwise.

Results are given in words; binding and its absence hold for the method and conditions named. Some binding calls cover weakened binding; strength is not graded here.

B1: PSEUDO RESPONSE REGULATOR 37 (PRR37) (protein, UniProt Q0D3B6 1-742)
chain: MMGTAHHNQTAGSALGVGVGDANDAVPGAGGGGYSDPDGGPISGVQRPPQVCWERFIQKKTIKVLLVDSDDSTRQVVSALLRHCMYEVIPAENGQQAWTYLEDMQNSIDLVLTEVVMPGVSGISLLSRIMNHNICKNIPVIMMSSNDAMGTVFKCLSKGAVDFLVKPIRKNELKNLWQHVWRRCHSSSGSGSESGIQTQKCAKSKSGDESNNNNGSNDDDDDDGVIMGLNARDGSDNGSGTQAQSSWTKRAVEIDSPQAMSPDQLADPPDSTCAQVIHLKSDICSNRWLPCTSNKNSKKQKETNDDFKGKDLEIGSPRNLNTAYQSSPNERSIKPTDRRNEYPLQNNSKEAAMENLEESSVRAADLIGSMAKNMDAQQAARAANAPNCSSKVPEGKDKNRDNIMPSLELSLKRSRSTGDGANAIQEEQRNVLRRSDLSAFTRYHTPVASNQGGTGFMGSCSLHDNSSEAMKTDSAYNMKSNSDAAPIKQGSNGSSNNNDMGSTTKNVVTKPSTNKERVMSPSAVKANGHTSAFHPAQHWTSPANTTGKEKTDEVANNAAKRAQPGEVQSNLVQHPRPILHYVHFDVSRENGGSGAPQCGSSNVFDPPVEGHAANYGVNGSNSGSNNGSNGQNGSTTAVNAERPNMEIANGTINKSGPGGGNGSGSGSGNDMYLKRFTQREHRVAAVIKFRQKRKERNFGKKVRYQSRKRLAEQRPRVRGQFVRQAVQDQQQQGGGREAAADR
Take B1: the binding entry in assay [1] is “no binding”.

B2: GRAIN YIELD, PLANT HEIGHT AND HEADING DATE 8 (Ghd8) (protein, UniProt Q0J7P4 1-297)
chain: T1 sequence
In the case of B2, in assay [2], the binding result is “binds”.

B3: HEADING DATE 1 (Hd1), Nipponbare allele (Hd1^NB), Q9FDX8 1-395 (protein)
chain: MNYNFGGNVFDQEVGVGGEGGGGGEGSGCPWARPCDGCRAAPSVVYCRADAAYLCASCDARVHAANRVASRHERVRVCEACERAPAALACRADAAALCVACDVQVHSANPLPAITIPATSVLAEAVVATATVLGDKDEEVDSWLLLSKDSDNNNNNNNNNDNDNNDNNNSNSSNNGMYFGEVDEYFDLVGYNSYYDNRIENNQDRQYGMHEQQEQQQQQQEMQKEFAEKEGSECVVPSQITMLSEQQHSGYGVVGADQAASMTAGVSAYTDSISNSISFSSMEAGIVPDSTVIDMPNSRILTPAGAINLFSGPSLQMSLHFSSMDREARVLRYREKKKARKFEKTIRYETRKAYAEARPRIKGRFAKRSDVQIEVDQMFSTAALSDGSYGTVPWF
Regarding B3, the binding result in assay [3] and in assay [4] was “no binding” throughout.

Values taken from paper PMC5221825.
